Measured data: PubChem BioAssay AID1259308 (NCATS, 2017)
Here is an unselected part of about 59,000 reagents. About 1,510 of them (2.6%) were called active. 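Calls use total luciferase alone and ignore viability, so some active siRNAs may act by altering cell number.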 Unmarked entries are inactive. Reagents against one gene are numbered here. No sequences are given here.

Screen: 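Candidate targets for better recombinant protein yield in mammalian cells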 (primary screen)
Cells: human HEK293 embryonic kidney cells stably expressing firefly luciferase (HEK-CMV-Luc2-Hygro)
Knock-down reagent: single siRNA against human genes, 0.8 pmol siRNA per well
Timing: 72 h
Detection: 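Reporter luminescence and viable-cell signal on separate replicate plates, given as percent of non-targeting control and median/MAD z-scores, plus per-cell luciferase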
Reading the numbers: total luciferase, z-score and total luciferase, % of control: higher = more reporter protein produced; luciferase per cell, z-score: higher = more reporter output per viable cell; viable cells, % of control: higher = more viable cells
Active means: 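Active when the median/MAD z-score for overall luciferase is greater than 3; a gene was taken forward for validation with new siRNAs if at least two of its three siRNAs passed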
Meaning of the calls: active = raised luciferase; inactive = no rise

no.	gene knocked down	siRNA no.	total luciferase, z-score	total luciferase, % of control	luciferase per cell, z-score	viable cells, % of control
1	NANS (N-acetylneuraminate synthase)	1	-2.05	41.2	-2.68	93.3
2	NANS (N-acetylneuraminate synthase)	2	0.316	88.2	0.33	90.3
3	NANS (N-acetylneuraminate synthase)	3	0.781	97.4	1.35	76.4
4	MAPK3 (mitogen-activated protein kinase 3)	1	-1.23	57.5	0.557	55.5
5	MAPK3 (mitogen-activated protein kinase 3)	2	0.0209	82.3	0.602	78.5
6	MAPK3 (mitogen-activated protein kinase 3)	3	-0.323	75.5	0.56	72.8
7	TMEM47 (transmembrane protein 47)	1	2.47	131	2.69	72
8	TMEM47 (transmembrane protein 47)	2	-1.68	48.4	-2.13	94.8
9	TMEM47 (transmembrane protein 47)	3	-0.771	66.5	1.07	56.1
10	PRTG (protogenin)	1	0.779	97.4	0.696	90.6
11	PRTG (protogenin)	2	0.536	92.6	0.649	87.2
12	PRTG (protogenin)	3	0.183	85.5	-0.511	109
13	LINC01139 (long independently transcribed non-coding RNA 1139)	1	-0.489	72.2	-0.813	99.9
14	LINC01139 (long independently transcribed non-coding RNA 1139)	2	-0.138	79.1	0.14	85.2
15	LINC01139 (long independently transcribed non-coding RNA 1139)	3	-3.01	22	-1.23	34.1
16	VCAN (versican)	1	-0.517	71.6	-0.611	94
17	VCAN (versican)	2	0.231	86.5	0.642	81.6
18	VCAN (versican)	3	-0.504	71.9	0.163	76.9
19	CASTOR1 (cytosolic arginine sensor for mTORC1 subunit 1)	1	-0.496	72	0.415	72.2
20	CASTOR1 (cytosolic arginine sensor for mTORC1 subunit 1)	2	-1.7	48	-1.9	88.5
21	CASTOR1 (cytosolic arginine sensor for mTORC1 subunit 1)	3	-2.15	39.1	-2.08	75.5

Next part, starting with the last 5 of the part before.
no.	gene knocked down	siRNA no.	total luciferase, z-score	total luciferase, % of control	luciferase per cell, z-score	viable cells, % of control
17	VCAN (versican)	2	0.231	86.5	0.642	81.6
18	VCAN (versican)	3	-0.504	71.9	0.163	76.9
19	CASTOR1 (cytosolic arginine sensor for mTORC1 subunit 1)	1	-0.496	72	0.415	72.2
20	CASTOR1 (cytosolic arginine sensor for mTORC1 subunit 1)	2	-1.7	48	-1.9	88.5
21	CASTOR1 (cytosolic arginine sensor for mTORC1 subunit 1)	3	-2.15	39.1	-2.08	75.5
22	DDX31 (DEAD-box helicase 31)	1	0.16	85.1	0.178	90.7
23	DDX31 (DEAD-box helicase 31)	2	-0.925	63.5	-1.15	96
24	DDX31 (DEAD-box helicase 31)	3	0.712	96.1	0.0862	105
25	FLJ40039 (retired record)	1	3.04 (active)	142	2.57	80.8
26	FLJ40039 (retired record)	2	4.24 (active)	166	3.12	81.6
27	FLJ40039 (retired record)	3	0.344	88.7	0.171	94.8
28	LHFPL6 (LHFPL tetraspan subfamily member 6)	1	0.655	94.9	1.35	74.3
29	LHFPL6 (LHFPL tetraspan subfamily member 6)	2	-1.19	58.3	-0.309	70.6
30	LHFPL6 (LHFPL tetraspan subfamily member 6)	3	-0.46	72.7	-0.691	97.5
31	NAA11 (N-alpha-acetyltransferase 11, NatA catalytic subunit)	1	0.211	86.1	-0.0466	97.4
32	NAA11 (N-alpha-acetyltransferase 11, NatA catalytic subunit)	2	0.584	93.5	1.32	73.8
33	NAA11 (N-alpha-acetyltransferase 11, NatA catalytic subunit)	3	0.446	90.8	0.72	83.9
34	ENTPD4 (ectonucleoside triphosphate diphosphohydrolase 4)	1	-0.992	62.2	-0.554	80.4
35	ENTPD4 (ectonucleoside triphosphate diphosphohydrolase 4)	2	4.07 (active)	163	2.57	92.6
36	ENTPD4 (ectonucleoside triphosphate diphosphohydrolase 4)	3	0.049	82.9	0.578	79.5
37	GFM1 (G elongation factor mitochondrial 1)	1	-0.811	65.8	-1.12	98.8
38	GFM1 (G elongation factor mitochondrial 1)	2	-0.00161	81.9	-0.944	117
39	GFM1 (G elongation factor mitochondrial 1)	3	-0.984	62.3	-0.482	79
